Source: PMC9974451

Assays:
[1] = biological target: T1, His-NOSIP-MBP (nitric oxide synthase interacting protein) (UniProt Q9Y314); assay: pull-down; 100 pmol His-NOSIP-MBP (WT or K78A/K79A) or MBP immobilised on amylose beads, 100 pmol purified His-tagged NTR, with or without 300 pmol RanQ69L(1-180)-GTP, 3 h, 4 °C, TPB; SDS-PAGE, Coomassie; both purified
T1 sequence: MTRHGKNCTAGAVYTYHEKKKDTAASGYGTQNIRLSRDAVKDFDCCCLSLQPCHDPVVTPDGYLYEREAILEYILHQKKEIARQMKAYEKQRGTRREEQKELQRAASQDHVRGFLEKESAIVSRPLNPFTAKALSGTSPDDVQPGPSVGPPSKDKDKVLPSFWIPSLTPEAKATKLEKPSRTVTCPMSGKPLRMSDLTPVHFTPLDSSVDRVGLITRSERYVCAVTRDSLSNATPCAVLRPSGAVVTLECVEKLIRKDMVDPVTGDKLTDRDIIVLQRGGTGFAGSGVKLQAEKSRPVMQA

[2] = biological target: T1, His-NOSIP-MBP (nitric oxide synthase interacting protein); assay: pull-down; competition among NTRs: 100 pmol His-NOSIP-MBP immobilised on amylose beads, 100 pmol of one NTR and increasing amounts of the other; Coomassie; both purified

binding [1]: binds
binding [2]: binds
Substance: His-importin 7 (Xenopus laevis)

Results are given in words; binding and its absence hold for the method and conditions named. Binding can be weak; no strength is given. Tags and fused reporters may be left off the sequences shown.
